This is an account of results in patent publication US8603531B2, “Nanometer-sized prodrugs of NSAIDs” (Cedars-Sinai Medical Center, priority 2008, dated 2013).

Some compounds share one wording; it may come from a single statement.

The nature of this data set: Oxidative destabilization of nanoprodrugs (turbidity at 500 nm after HOCl). As to conditions: nanoprodrug 250 μM, HOCl 25-1000 μM, PBS pH 7.4. Here is the method: The nanoprodrugs were purified by centrifuging three times at 20,000×g for 10 min at 25° C. and resuspending each time in the same volume of deionized water. The purified nanoprodrugs were resuspended in phosphate buffered saline (PBS, pH 7.4) to give the final concentration of 250 μM NSAID derivatives. The concentration of HOCl in the diluted commercial sodium hypochlorite solution was determined spectrophotometrically (ε292=350 M^−1 cm^−1) (Morris, 1966). HOCl was added to the suspension of nanoprodrugs to give the final concentration of 25-1000 μM and the reduction in turbidity was measured immediately using ultraviolet/visible spectrometer (Bio-Rad SmartSpec™ 3000, Hercules, Calif., USA) at room temperature with a wavelength λ=500 nm.
In the case of `CC(C)Cc1ccc(C(C)C(=O)OCCOCCOCCOCCOC(=O)C(C)c2ccc(CC(C)C)cc2)cc1` (stereo not drawn) [Ibu2TEG, Tetraethylene glycol(ibuprofen)2], the “Change in OD (turbidity, 500 nm) in the presence of HOCl” value (“Change in OD (turbidity, 500 nm)” below) is on record as “did not show any changes in OD”.

In the case of `COc1ccc2c(c1)c(CC(=O)OCCOCCOCCOCCOC(=O)Cc1c(C)n(C(=O)c3ccc(Cl)cc3)c3ccc(OC)cc13)c(C)n2C(=O)c1ccc(Cl)cc1` [Ind2TEG], the “Change in OD (turbidity, 500 nm)” value is recorded as “did not show any changes in OD”.

Regarding `COc1ccc2cc(C(C)C(=O)OCCOCCOCCOCCOC(=O)C(C)c3ccc4cc(OC)ccc4c3)ccc2c1` (stereo not drawn) [Npx2TEG], the “Change in OD (turbidity, 500 nm)” value is “did not show any changes in OD”.
